Data published in patent publication US20260193293A1, “PEPTIDES CAPABLE OF INHIBITING PROTEIN-PROTEIN INTERACTIONS AT GABAB1A SUBUNIT AND USES THEREOF” (UNIVERSITY OF COPENHAGEN, priority 2022, published 2026).
The name of at least one read-out is uncertain. Non-standard residues stand in square brackets, D forms with d. Residues, ends and D or L forms follow the SMILES beside them. 2Nal = N[C@@H](Cc1ccc2ccccc2c1)C(=O)O

By UniProt entry, the sequences of proteins in these tests, tags left out. Residues count along the entry.
UniProt Q9UBS5, 15-961 limits assumed: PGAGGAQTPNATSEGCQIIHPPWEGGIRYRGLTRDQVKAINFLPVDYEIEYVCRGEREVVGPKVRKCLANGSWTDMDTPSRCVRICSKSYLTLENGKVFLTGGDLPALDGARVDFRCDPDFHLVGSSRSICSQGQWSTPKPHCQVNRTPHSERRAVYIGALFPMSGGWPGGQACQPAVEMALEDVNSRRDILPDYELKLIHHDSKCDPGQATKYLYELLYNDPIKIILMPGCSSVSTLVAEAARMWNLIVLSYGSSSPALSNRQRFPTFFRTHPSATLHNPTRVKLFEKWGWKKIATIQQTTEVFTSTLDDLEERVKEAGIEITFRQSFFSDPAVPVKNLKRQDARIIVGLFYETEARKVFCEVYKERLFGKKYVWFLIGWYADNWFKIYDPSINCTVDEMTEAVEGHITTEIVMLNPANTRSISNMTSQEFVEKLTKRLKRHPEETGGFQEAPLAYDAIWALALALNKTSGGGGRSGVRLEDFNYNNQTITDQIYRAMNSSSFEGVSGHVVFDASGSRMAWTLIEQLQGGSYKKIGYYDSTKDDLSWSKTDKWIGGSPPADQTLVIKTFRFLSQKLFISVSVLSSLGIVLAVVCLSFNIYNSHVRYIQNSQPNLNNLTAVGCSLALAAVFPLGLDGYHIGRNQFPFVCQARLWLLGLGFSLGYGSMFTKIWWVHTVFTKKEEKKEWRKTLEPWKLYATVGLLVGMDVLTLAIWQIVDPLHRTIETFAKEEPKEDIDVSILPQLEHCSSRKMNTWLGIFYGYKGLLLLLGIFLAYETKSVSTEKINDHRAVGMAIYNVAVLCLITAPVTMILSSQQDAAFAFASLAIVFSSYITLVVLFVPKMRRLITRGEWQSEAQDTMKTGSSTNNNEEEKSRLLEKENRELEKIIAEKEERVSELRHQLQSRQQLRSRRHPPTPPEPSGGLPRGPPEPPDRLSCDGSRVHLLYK

Biological target: T1, GB1a/2 receptors in presence of AJAP-1 in trans (Homo sapiens, UniProt Q9UBS5)
T1 construct: Flag; expressed in transfected cells; host or cells: HEK293T cells stably expressing chimeric Gαq/i
Test: SRE-Luciferase accumulation assay
Type: cell-based
Details: 10 μM peptide
From the text: To elucidate whether our developed peptides AJAP-1WT, 16 and 20 could interact and disrupt the trans-interaction between AJAP-1 and GB1a/2Rs, we used an established accumulation assay based on coupling GB1a/2Rs to phospholipase C (PLC) via chimeric Gαqi (Conklin et al. 1993). PLC activity is then monitored with a serum responsive element-luciferase (SRE-Luciferase) reporter amplifying the GB1a/2Rs response (Yoo et al. 2017) (FIG. 5).
HEK293T cells stably expressing Gαq/i were transiently transfected with Flag-GB1a, Flag-GB2 and SRE-FLuc with or without AJAP-1. In order to ensure GB1a/2 binding of AJAP-1 in trans, a pool of HEK293T-Gαq/i cells expressing AJAP-1 was mixed with HEK293-Gαq/i cells expressing Flag-GB1a, Flag-GB2 and SRE-FLuc. Transfected cells were distributed into 96-well microplates (Greiner Bio-One) at a density of 80,000 cells/well. After 24 h, the culture medium was replaced with Opti-MEM™-GlutaMAX™ Peptides were incubated in Opti-MEM™-GlutaMAX™ for 10 minutes. In presence of peptide, GB1a/2 receptors were activated with various concentrations of GABA for 6 h. FLuc activity in lysed cells was measured using the Luciferase® Assay Kit (Promega) and a Spark® microplate reader. Luminescence signals were adjusted by subtracting the luminescence obtained when expressing SRE-FLuc fusion proteins alone.

Q: Which “EC50 values of GABA activation at trans-cellular GB1a/2Rs” value (“EC50 values of GABA activation” for short) does the source give for CC[C@H](C)[C@H](NC(=O)[C@H](Cc1ccccc1)NC(=O)[C@H](CCC(=O)O)NC(=O)[C@@H](NC(=O)[C@H](CCC(=O)O)NC(C)=O)[C@@H](C)O)C(=O)N[C@@H](C)C(=O)N[C@@H](Cc1c[nH]c2ccccc12)C(=O)NCC(=O)N1CCC[C@H]1C(=O)N[C@H](C(=O)NCC(=O)N[C@@H](CC(=O)O)C(=O)N[C@@H](CCC(=O)O)C(=O)N[C@@H](CC(=O)O)C(N)=O)[C@@H](C)O [AJAP-1WT, Ac-ETEFIAWGPTGDED-NH2] (Ac-ETEFIAWGPTGDED-NH2) here?
A: Its value is “decreased EC50 values”.

Q: CC[C@H](C)[C@H](NC(=O)[C@H](Cc1c[nH]c2ccccc12)NC(=O)[C@H](CC(=O)O)NC(=O)[C@H](CC(=O)O)NC(=O)[C@H](CC(=O)O)NC(=O)[C@H](CCC(=O)O)NC(C)=O)C(=O)N[C@@H](CC(=O)O)C(=O)N[C@@H](Cc1c[nH]c2ccccc12)C(=O)N[C@@H](Cc1ccc(O)cc1)C(=O)N[C@@H](CC(=O)O)C(=O)N[C@@H](CO)C(=O)N[C@@H](CC(=O)O)C(=O)N[C@@H](CC(=O)O)C(=O)N[C@@H](CC(=O)O)C(N)=O [Peptide 16] (Ac-EDDDWIDWYDSDDD-NH2) was tested. Which “EC50 values of GABA activation” value did it give?
A: Its value is “decreased EC50 values”.

Q: For CC[C@H](C)[C@H](NC(=O)[C@H](CC(=O)O)NC(=O)[C@H](CC(=O)O)NC(=O)[C@H](Cc1ccc(O)cc1)NC(=O)[C@H](CC(=O)O)NC(=O)[C@H](CC(=O)O)NC(=O)[C@H](CO)NC(=O)[C@H](CC(=O)O)NC(=O)[C@H](CCC(=O)O)NC(=O)[C@H](Cc1ccc2ccccc2c1)NC(C)=O)C(=O)N[C@@H](CC(=O)O)C(=O)N[C@@H](CC(=O)O)C(=O)N[C@@H](CC(=O)O)C(=O)N[C@@H](Cc1c[nH]c2ccccc12)C(N)=O [Scr-20, reference compound] (Ac-[2Nal]EDSDDYDDIDDDW-NH2), which “EC50 values of GABA activation” value is on record?
A: The value was “increased EC50 values”.
